Source: PubChem BioAssay AID1224829 (NIAID, 2016)
The whole screen tested about 3,800 reagents; shown is a part drawn at random. 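Calls cover raised and lowered translocation; gene median uses one vendor's three siRNAs; qiagen siRNAs acted more weakly than ambion siRNAs.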 The numbers tell different reagents against one gene apart.

Aim: 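Secondary check of hits that alter LPS-induced p65 translocation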 (follow-up of hits)
Cell system: mouse RAW264.7 G9 macrophage reporter cells
Reagent: single siRNA against mouse genes, 100 nM
Time to read-out: 2 days of siRNA knock-down, then 40 min of LPS before fixing
Treatment: LPS (Salmonella minnesota R595) at 10 ng/ml
Measurement: 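Imaging of GFP-p65 after 40 min of LPS; nuclear over perinuclear ring intensity ratio, scaled to plate median and non-targeting control wells, given as z-score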
Reading the numbers: p65 translocation z-score and gene median z-score, per vendor: higher = more nuclear NF-kappaB p65 after LPS
Hit rule: 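Active means the replicate-mean z-score lies beyond plus or minus 2, in either direction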
Calls: active = changed p65 translocation (either direction); inactive = no clear change

Target gene | reagent no. | siRNA vendor or control pool | p65 translocation z-score, replicate mean | p65 translocation z-score, replicate 1 | p65 translocation z-score, replicate 2 | gene median z-score, per vendor | outcome
Tnfrsf25 (GeneID 85030) | 1 | ambion single siRNA | 0.588 | 1.07 | 0.104 | -1.77 | inactive
Tnfrsf25 (GeneID 85030) | 2 | ambion single siRNA | -1.77 | -0.941 | -2.59 | -1.77 | inactive
Tnfrsf25 (GeneID 85030) | 3 | ambion single siRNA | -3.06 | -3.52 | -2.59 | -1.77 | active
Tnfrsf25 (GeneID 85030) | 4 | qiagen single siRNA | 1.44 | 1.38 | 1.49 | 1.32 | inactive
Tnfrsf25 (GeneID 85030) | 5 | qiagen single siRNA | 1.61 | 1.95 | 1.27 | 1.32 | inactive
Tnfrsf25 (GeneID 85030) | 6 | qiagen single siRNA | -1.98 | -1.96 | -2.01 | 1.32 | inactive
Sh2d2a (GeneID 27371) | 1 | ambion single siRNA | -1.09 | -1.43 | -0.749 | -1.44 | inactive
Sh2d2a (GeneID 27371) | 2 | ambion single siRNA | -3.28 | -4.59 | -1.98 | -1.44 | active
Sh2d2a (GeneID 27371) | 3 | ambion single siRNA | -1.37 | -1.45 | -1.3 | -1.44 | inactive
Sh2d2a (GeneID 27371) | 4 | qiagen single siRNA | 1.18 | 0.78 | 1.58 | 0.78 | inactive
Sh2d2a (GeneID 27371) | 5 | qiagen single siRNA | -0.634 | 0.649 | -1.92 | 0.78 | inactive
Sh2d2a (GeneID 27371) | 6 | qiagen single siRNA | 1.7 | 1.7 | – | 0.78 | inactive
Cyp4a31 (GeneID 666168) | 1 | qiagen single siRNA | -0.447 | -0.77 | -0.124 | -0.545 | inactive
Cyp4a31 (GeneID 666168) | 2 | qiagen single siRNA | -3.98 | -7.64 | -0.319 | -0.545 | active
Cyp4a31 (GeneID 666168) | 3 | qiagen single siRNA | 0.465 | -1.26 | 2.19 | -0.545 | inactive
Or2y1b (GeneID 18307) | 1 | ambion single siRNA | -1.42 | -2.43 | -0.411 | -2.43 | inactive
Or2y1b (GeneID 18307) | 2 | ambion single siRNA | -3.07 | -4.81 | -1.32 | -2.43 | active
Or2y1b (GeneID 18307) | 3 | ambion single siRNA | -2.5 | -2.5 | – | -2.43 | active
Or2y1b (GeneID 18307) | 4 | qiagen single siRNA | 3.31 | 2.79 | 3.82 | -0.562 | active
Or2y1b (GeneID 18307) | 5 | qiagen single siRNA | -1.09 | -1.18 | -0.998 | -0.562 | inactive
Or2y1b (GeneID 18307) | 6 | qiagen single siRNA | -0.801 | -1.48 | -0.126 | -0.562 | inactive

The list goes on (3 carried over from the part before).
Target gene | reagent no. | siRNA vendor or control pool | p65 translocation z-score, replicate mean | p65 translocation z-score, replicate 1 | p65 translocation z-score, replicate 2 | gene median z-score, per vendor | outcome
Or2y1b (GeneID 18307) | 4 | qiagen single siRNA | 3.31 | 2.79 | 3.82 | -0.562 | active
Or2y1b (GeneID 18307) | 5 | qiagen single siRNA | -1.09 | -1.18 | -0.998 | -0.562 | inactive
Or2y1b (GeneID 18307) | 6 | qiagen single siRNA | -0.801 | -1.48 | -0.126 | -0.562 | inactive
Prmt5 (GeneID 27374) | 1 | ambion single siRNA | -0.0958 | 2.11 | -2.3 | -2.54 | inactive
Prmt5 (GeneID 27374) | 2 | ambion single siRNA | -2.25 | -2.78 | -1.72 | -2.54 | active
Prmt5 (GeneID 27374) | 3 | ambion single siRNA | -4.3 | -4.26 | -4.33 | -2.54 | active
Prmt5 (GeneID 27374) | 4 | qiagen single siRNA | 0.155 | -0.605 | 0.916 | 0.479 | inactive
Prmt5 (GeneID 27374) | 5 | qiagen single siRNA | 0.423 | 2.7 | -1.85 | 0.479 | inactive
Prmt5 (GeneID 27374) | 6 | qiagen single siRNA | 0.769 | 0.0414 | 1.5 | 0.479 | inactive
Tas2r108 (GeneID 57253) | 1 | ambion single siRNA | 1.01 | 1.72 | 0.307 | -0.767 | inactive
Tas2r108 (GeneID 57253) | 2 | ambion single siRNA | -2.33 | -2.39 | -2.26 | -0.767 | active
Tas2r108 (GeneID 57253) | 3 | ambion single siRNA | -0.767 | -0.57 | -0.965 | -0.767 | inactive
Tas2r108 (GeneID 57253) | 4 | qiagen single siRNA | 1.01 | 1.57 | 0.448 | -1.68 | inactive
Tas2r108 (GeneID 57253) | 5 | qiagen single siRNA | -2.92 | -1.68 | -4.15 | -1.68 | active
Tas2r108 (GeneID 57253) | 6 | qiagen single siRNA | -2.99 | -2.99 | – | -1.68 | active
Fpr1 (GeneID 14293) | 1 | ambion single siRNA | -0.291 | 1.06 | -1.64 | -1.66 | inactive
Fpr1 (GeneID 14293) | 2 | ambion single siRNA | -2.05 | -1.67 | -2.42 | -1.66 | active
Fpr1 (GeneID 14293) | 3 | ambion single siRNA | – | – | – | -1.66 | inactive
Fpr1 (GeneID 14293) | 4 | qiagen single siRNA | 1.99 | 2.26 | 1.72 | 0.317 | inactive
Fpr1 (GeneID 14293) | 5 | qiagen single siRNA | 0.317 | -0.187 | 0.821 | 0.317 | inactive
Fpr1 (GeneID 14293) | 6 | qiagen single siRNA | -1.82 | -2.38 | -1.27 | 0.317 | inactive
